From article PMC11900879 come the findings set out here.

The chains behind the UniProt entries cited, without tags or fusion partners. Where a name states a change or a piece, a line headed by the entry shows the natural chain unless it says otherwise.
UniProt Q13315: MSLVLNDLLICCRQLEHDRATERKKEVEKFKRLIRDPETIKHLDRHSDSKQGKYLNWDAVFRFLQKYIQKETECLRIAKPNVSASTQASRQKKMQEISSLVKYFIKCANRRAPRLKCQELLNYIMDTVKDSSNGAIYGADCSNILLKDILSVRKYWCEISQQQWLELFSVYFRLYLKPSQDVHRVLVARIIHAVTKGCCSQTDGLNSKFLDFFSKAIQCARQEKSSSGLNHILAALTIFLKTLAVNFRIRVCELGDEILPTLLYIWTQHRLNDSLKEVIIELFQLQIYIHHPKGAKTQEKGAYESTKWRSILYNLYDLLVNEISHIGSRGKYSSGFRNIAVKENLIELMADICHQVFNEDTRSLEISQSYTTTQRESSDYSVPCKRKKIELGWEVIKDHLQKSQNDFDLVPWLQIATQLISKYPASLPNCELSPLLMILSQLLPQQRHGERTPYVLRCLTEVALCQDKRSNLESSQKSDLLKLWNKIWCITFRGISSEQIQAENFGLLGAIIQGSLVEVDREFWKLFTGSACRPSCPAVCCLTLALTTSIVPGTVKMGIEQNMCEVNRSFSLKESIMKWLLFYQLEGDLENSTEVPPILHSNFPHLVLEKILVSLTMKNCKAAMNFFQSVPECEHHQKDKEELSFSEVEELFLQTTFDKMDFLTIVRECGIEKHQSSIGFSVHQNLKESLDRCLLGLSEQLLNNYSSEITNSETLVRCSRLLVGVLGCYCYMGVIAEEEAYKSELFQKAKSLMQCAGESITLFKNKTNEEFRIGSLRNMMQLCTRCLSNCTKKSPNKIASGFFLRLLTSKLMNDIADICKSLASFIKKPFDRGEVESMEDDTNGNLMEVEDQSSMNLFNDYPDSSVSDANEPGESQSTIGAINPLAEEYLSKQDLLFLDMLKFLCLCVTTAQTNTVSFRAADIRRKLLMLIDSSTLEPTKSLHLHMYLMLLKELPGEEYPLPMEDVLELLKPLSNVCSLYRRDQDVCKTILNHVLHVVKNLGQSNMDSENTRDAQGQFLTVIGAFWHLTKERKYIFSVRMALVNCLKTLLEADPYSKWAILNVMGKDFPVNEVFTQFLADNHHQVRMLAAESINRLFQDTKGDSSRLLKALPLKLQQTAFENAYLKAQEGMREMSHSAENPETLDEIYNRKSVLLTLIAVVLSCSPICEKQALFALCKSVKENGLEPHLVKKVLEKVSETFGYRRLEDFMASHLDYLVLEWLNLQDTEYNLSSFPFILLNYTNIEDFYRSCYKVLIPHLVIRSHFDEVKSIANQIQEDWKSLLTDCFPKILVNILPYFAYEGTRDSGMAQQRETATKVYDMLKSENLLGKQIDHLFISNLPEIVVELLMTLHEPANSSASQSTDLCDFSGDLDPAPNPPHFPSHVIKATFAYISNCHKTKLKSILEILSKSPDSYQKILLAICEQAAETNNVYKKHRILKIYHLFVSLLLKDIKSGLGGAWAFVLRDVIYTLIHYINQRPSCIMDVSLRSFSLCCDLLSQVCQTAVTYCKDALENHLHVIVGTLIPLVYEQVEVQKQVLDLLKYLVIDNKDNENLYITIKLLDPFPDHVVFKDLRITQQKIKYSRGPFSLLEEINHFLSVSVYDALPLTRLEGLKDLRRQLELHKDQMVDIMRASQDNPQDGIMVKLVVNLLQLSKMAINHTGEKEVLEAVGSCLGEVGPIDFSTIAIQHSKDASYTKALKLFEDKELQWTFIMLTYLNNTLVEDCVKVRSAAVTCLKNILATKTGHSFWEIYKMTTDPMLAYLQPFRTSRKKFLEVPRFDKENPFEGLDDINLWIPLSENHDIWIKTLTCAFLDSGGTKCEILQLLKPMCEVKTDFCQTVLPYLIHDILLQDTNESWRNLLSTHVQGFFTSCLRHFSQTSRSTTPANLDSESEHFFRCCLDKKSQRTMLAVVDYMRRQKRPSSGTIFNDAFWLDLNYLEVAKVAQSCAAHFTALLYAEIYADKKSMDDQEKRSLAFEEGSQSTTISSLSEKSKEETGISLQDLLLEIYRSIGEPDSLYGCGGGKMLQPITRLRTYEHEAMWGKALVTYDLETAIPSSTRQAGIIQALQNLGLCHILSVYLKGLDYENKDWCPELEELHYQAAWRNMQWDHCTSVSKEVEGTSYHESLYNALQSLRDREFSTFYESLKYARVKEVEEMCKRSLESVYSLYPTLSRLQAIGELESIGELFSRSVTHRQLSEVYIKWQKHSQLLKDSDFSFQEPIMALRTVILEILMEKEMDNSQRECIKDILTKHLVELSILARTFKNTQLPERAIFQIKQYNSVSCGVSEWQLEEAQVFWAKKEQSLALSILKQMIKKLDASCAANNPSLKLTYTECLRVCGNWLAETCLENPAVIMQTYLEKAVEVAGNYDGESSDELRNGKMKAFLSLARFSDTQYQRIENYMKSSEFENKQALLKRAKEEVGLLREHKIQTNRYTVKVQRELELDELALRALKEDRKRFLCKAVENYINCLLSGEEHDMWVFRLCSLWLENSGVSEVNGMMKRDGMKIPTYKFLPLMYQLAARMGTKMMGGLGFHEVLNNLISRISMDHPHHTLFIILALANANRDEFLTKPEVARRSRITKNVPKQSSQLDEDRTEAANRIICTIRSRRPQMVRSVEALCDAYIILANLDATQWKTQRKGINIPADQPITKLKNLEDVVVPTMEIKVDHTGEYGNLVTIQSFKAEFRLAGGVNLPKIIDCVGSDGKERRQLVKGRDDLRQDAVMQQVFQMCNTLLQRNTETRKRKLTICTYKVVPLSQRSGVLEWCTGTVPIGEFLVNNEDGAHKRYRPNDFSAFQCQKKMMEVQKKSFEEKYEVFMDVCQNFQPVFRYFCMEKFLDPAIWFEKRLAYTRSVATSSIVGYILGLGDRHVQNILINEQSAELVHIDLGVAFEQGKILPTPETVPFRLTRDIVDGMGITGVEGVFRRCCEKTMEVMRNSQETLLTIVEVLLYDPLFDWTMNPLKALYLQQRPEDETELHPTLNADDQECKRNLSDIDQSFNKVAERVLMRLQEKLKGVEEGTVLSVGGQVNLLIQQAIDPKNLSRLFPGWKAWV

The target of assay [1] is γH2AX (human (endogenous in H460 and H157)) (UniProt P16104). Put plainly: proximity ligation; in situ Duolink PLA on cells fixed with 4% PFA and permeabilised with 0.5% Triton X-100; endogenous proteins detected with primary antibodies; WT and LIPT1-/- H460 and H157 cells, with or without 10-Gy or 4-Gy IR; also Myc-LIPT1 re-expression, siKDM4B, 1 mM dimethyl-α-KG.
Assay [2] deals with ATM (ataxia telangiectasia–mutated) kinase (human (endogenous in H460 and H157)) (UniProt Q13315). The description is as above.

No constants are given. Whether binding was seen depends on the method and setting. In cells and extracts the contact can be indirect. Some entries that bind do so weakly or less than the wild type.

Consider TIP60 (from UniProt Q92993 1-513), for which the binding result in assay [1] and in assay [2] was “binds” in each case.
